Our source for the binding values is patent publication US20170080048A1.

Assay [1] addresses EGFR (human) (UniProt P00533). Kind of assay: co-localization with EGFR by fluorescence microscopy in H226 cells (similar results to rLZ-8).
The target of assay [2] is EGFR (human) (UniProt P00533). The assay is described as follows: co-localization by fluorescence microscopy (figure legend).

Results are given in words; binding and its absence hold for the method and conditions named. Some results given as binding are weak or reduced against the parent protein; the word gives no strength.

B1: recombinant immunomodulatory protein derived from Ganoderma microsporum (protein)
chain: MSDTALIFTLAWNVKQLAFDYTPNWGRGRPSSFIDTVTFPTVLTDKAYTYRVVVSGKDLGVRPSYAVESDGSQKINFLEYNSGYGIADTNTIQVYVIDPDTGNNFIVAQWN
Take B1: the binding entry with EGFR (human) [1] and with EGFR (human) [2] was “binds” each time.
